Article PMC5103071
Numbering of substitutions follows the chain as printed. Numbers in names are those of the source. Results are given in words; binding and its absence hold for the method and conditions named. Binding seen in cells or lysates may run through a third protein. Some binding calls cover weakened binding; strength is not graded here. Tags and fused reporters may be left off the sequences shown. Each block holds one binder with its values, some of them ahead of it.

What was measured:
[1] = target: T1, myc–PIAS3 (UniProt Q9Y6X2); assay: co-IP; myc–PIAS3 and FLAG–gephyrin (WT or phospho-site mutants) co-transfected in HEK293 cells; IP for myc–PIAS3, WB against FLAG; protein G agarose, washes in high-salt buffer and EBC buffer
T1 sequence: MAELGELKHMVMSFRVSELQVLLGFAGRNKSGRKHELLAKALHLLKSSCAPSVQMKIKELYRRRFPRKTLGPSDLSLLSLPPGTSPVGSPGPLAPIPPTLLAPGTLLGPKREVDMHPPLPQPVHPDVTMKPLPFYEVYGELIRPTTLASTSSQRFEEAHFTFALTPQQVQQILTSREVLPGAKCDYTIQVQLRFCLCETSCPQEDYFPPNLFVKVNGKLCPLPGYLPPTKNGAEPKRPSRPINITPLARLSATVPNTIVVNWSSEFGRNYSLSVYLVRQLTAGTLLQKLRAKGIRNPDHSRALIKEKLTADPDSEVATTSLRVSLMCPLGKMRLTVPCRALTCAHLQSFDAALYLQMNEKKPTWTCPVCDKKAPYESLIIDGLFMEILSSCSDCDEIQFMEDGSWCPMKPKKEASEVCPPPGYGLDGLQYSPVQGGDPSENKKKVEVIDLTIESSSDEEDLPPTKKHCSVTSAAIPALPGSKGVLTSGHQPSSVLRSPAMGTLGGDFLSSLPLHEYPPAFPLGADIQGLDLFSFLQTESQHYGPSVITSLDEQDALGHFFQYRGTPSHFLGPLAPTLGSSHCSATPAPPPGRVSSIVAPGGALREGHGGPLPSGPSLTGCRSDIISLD

[2] = target: T2, FLAG–gephyrin (rat) (UniProt Q03555); assay: co-IP; FLAG–gephyrin and myc–PIAS co-expressed in HEK293 cells; IP with anti-FLAG antibody, WB for myc; protein G agarose, washes in high-salt buffer and EBC buffer (50 mM Tris pH 8.0, 120 mM NaCl, 0.5% NP-40)
T2 sequence: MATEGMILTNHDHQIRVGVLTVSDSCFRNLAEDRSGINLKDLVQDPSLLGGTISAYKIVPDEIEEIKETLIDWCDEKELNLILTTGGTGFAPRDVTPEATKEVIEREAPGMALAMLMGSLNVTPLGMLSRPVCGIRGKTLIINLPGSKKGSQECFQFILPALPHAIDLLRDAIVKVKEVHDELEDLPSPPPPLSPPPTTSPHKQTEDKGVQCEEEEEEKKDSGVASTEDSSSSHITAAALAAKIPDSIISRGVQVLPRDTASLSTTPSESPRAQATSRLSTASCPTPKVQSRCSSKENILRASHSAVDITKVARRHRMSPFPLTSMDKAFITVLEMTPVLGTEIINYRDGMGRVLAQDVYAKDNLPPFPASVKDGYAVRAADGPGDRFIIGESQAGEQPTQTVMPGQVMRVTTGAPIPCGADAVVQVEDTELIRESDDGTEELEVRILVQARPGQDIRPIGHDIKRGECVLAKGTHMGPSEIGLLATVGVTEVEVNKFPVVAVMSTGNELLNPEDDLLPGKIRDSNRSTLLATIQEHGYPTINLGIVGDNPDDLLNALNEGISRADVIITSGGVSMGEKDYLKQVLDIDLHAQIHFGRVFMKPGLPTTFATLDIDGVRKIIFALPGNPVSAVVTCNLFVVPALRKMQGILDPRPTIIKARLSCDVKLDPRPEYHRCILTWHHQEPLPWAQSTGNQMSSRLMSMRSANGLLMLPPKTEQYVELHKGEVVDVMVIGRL

B1: FLAG–gephyrin (protein, UniProt Q03555-6 1-736)
chain: T2 sequence
binding [1]: binds

B4: FLAG–S268A (protein, UniProt Q03555-6 1-736)
chain: T2 sequence with S268A
binding [1]: binds

B5: myc–PIAS3 (protein, UniProt Q9Y6X2 1-628)
chain: T1 sequence
binding [2]: binds

Further lines, results first:

binding [1]: binds
B2: FLAG–S270E (protein, UniProt Q03555-6 1-736)
chain: T2 sequence with S270E

binding [1]: binds
B3: FLAG–S270A (protein, UniProt Q03555-6 1-736)
chain: T2 sequence with S270A
